{"source": "PubChem BioAssay AID504774 | Drosophila RNAi Screening Center, 2011", "test": "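Knock-downs that shift viability of MMS-exposed cells relative to untreated ones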 (primary screen)", "system": "Drosophila Kc167 cells", "reagents": "long dsRNA against Drosophila genes, about 0.25 µg dsRNA per well", "duration": "about 6 days: 3 days knock-down, then 3 days with or without MMS", "conditions": "methyl methanesulphonate 0.004% (w/v) for 3 days after knock-down", "measurement": "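ATP-dependent luminescence as a measure of live cells in MMS-exposed wells, quantile normalised within each plate, with replicate values also given as a mean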", "reading the numbers": "mean viability with MMS and viability with MMS: higher = more surviving cells after MMS", "note": "The deposit covers about 23,000 reagents; below is an unselected part of those with a known target gene and a result. 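Values are quantile-normalised luminescence on an arbitrary scale; higher means more cells surviving MMS.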 Reagents against one gene are numbered here. Names joined by + are all predicted targets of the reagent. Not all columns of the deposit are shown."}
{"gene knocked down": "del", "reagent no.": 1, "mean viability with MMS": 3.68e6, "viability with MMS, replicate 1": 4.11e6}
{"gene knocked down": "Obp58d", "reagent no.": 1, "mean viability with MMS": 3.65e6, "viability with MMS, replicate 1": 3.97e6}
{"gene knocked down": "eIF3b", "reagent no.": 1, "mean viability with MMS": 3.08e6, "viability with MMS, replicate 1": 3.56e6}
{"gene knocked down": "CG42538", "reagent no.": 1, "mean viability with MMS": 3.71e6, "viability with MMS, replicate 1": 4.16e6}
{"gene knocked down": "trx", "reagent no.": 1, "mean viability with MMS": 3.56e6, "viability with MMS, replicate 1": 4.10e6}
{"gene knocked down": "CG6602", "reagent no.": 1, "mean viability with MMS": 3.55e6, "viability with MMS, replicate 1": 4.15e6}
{"gene knocked down": "btv", "reagent no.": 1, "mean viability with MMS": 3.41e6, "viability with MMS, replicate 1": 3.82e6}
{"gene knocked down": "btv", "reagent no.": 2, "mean viability with MMS": 3.54e6, "viability with MMS, replicate 1": 3.91e6}
{"gene knocked down": "Vps28", "reagent no.": 1, "mean viability with MMS": 3.45e6, "viability with MMS, replicate 1": 3.91e6}
{"gene knocked down": "CG14247", "reagent no.": 1, "mean viability with MMS": 3.62e6, "viability with MMS, replicate 1": 4.15e6}
{"gene knocked down": "ND-42", "reagent no.": 1, "mean viability with MMS": 3.51e6, "viability with MMS, replicate 1": 3.95e6}
{"gene knocked down": "Membrin", "reagent no.": 1, "mean viability with MMS": 3.70e6, "viability with MMS, replicate 1": 4.39e6}

Records listed so far whose target name begins with C or c:
{"gene knocked down": "CG42538", "reagent no.": 1, "mean viability with MMS": 3.71e6, "viability with MMS, replicate 1": 4.16e6}
{"gene knocked down": "CG6602", "reagent no.": 1, "mean viability with MMS": 3.55e6, "viability with MMS, replicate 1": 4.15e6}
{"gene knocked down": "CG14247", "reagent no.": 1, "mean viability with MMS": 3.62e6, "viability with MMS, replicate 1": 4.15e6}

More entries:
{"gene knocked down": "loh", "reagent no.": 1, "mean viability with MMS": 3.52e6, "viability with MMS, replicate 1": 4.08e6}
{"gene knocked down": "loh", "reagent no.": 2, "mean viability with MMS": 3.61e6, "viability with MMS, replicate 1": 4.22e6}
{"gene knocked down": "CG8746", "reagent no.": 1, "mean viability with MMS": 3.44e6, "viability with MMS, replicate 1": 3.83e6}
{"gene knocked down": "CG34301", "reagent no.": 1, "mean viability with MMS": 3.43e6, "viability with MMS, replicate 1": 3.76e6}
{"gene knocked down": "CG31804", "reagent no.": 1, "mean viability with MMS": 3.65e6, "viability with MMS, replicate 1": 4.07e6}
{"gene knocked down": "CG18746", "reagent no.": 1, "mean viability with MMS": 3.71e6, "viability with MMS, replicate 1": 4.06e6}
{"gene knocked down": "mRpL44", "reagent no.": 1, "mean viability with MMS": 3.67e6, "viability with MMS, replicate 1": 4.19e6}
{"gene knocked down": "CG15253", "reagent no.": 1, "mean viability with MMS": 3.49e6, "viability with MMS, replicate 1": 3.96e6}
{"gene knocked down": "MFS14", "reagent no.": 1, "mean viability with MMS": 3.36e6, "viability with MMS, replicate 1": 3.79e6}
{"gene knocked down": "CG12662", "reagent no.": 1, "mean viability with MMS": 3.31e6, "viability with MMS, replicate 1": 3.62e6}
{"gene knocked down": "CCT3", "reagent no.": 1, "mean viability with MMS": 3.41e6, "viability with MMS, replicate 1": 3.87e6}
{"gene knocked down": "CG14450", "reagent no.": 1, "mean viability with MMS": 3.33e6, "viability with MMS, replicate 1": 3.72e6}
{"gene knocked down": "CG4459", "reagent no.": 1, "mean viability with MMS": 3.60e6, "viability with MMS, replicate 1": 4.16e6}
{"gene knocked down": "CrzR", "reagent no.": 1, "mean viability with MMS": 3.47e6, "viability with MMS, replicate 1": 3.96e6}
{"gene knocked down": "CrzR", "reagent no.": 2, "mean viability with MMS": 3.35e6, "viability with MMS, replicate 1": 3.71e6}
{"gene knocked down": "CG18284", "reagent no.": 1, "mean viability with MMS": 3.60e6, "viability with MMS, replicate 1": 3.86e6}
{"gene knocked down": "CG18284", "reagent no.": 2, "mean viability with MMS": 2.45e6, "viability with MMS, replicate 1": 4.10e6}
{"gene knocked down": "mRpL22", "reagent no.": 1, "mean viability with MMS": 3.54e6, "viability with MMS, replicate 1": 4.03e6}
{"gene knocked down": "CG17361", "reagent no.": 1, "mean viability with MMS": 3.44e6, "viability with MMS, replicate 1": 3.86e6}
{"gene knocked down": "CG32191", "reagent no.": 1, "mean viability with MMS": 3.61e6, "viability with MMS, replicate 1": 4.15e6}
{"gene knocked down": "eyg", "reagent no.": 1, "mean viability with MMS": 2.82e6, "viability with MMS, replicate 1": 3.43e6}
{"gene knocked down": "eyg", "reagent no.": 2, "mean viability with MMS": 3.54e6, "viability with MMS, replicate 1": 3.99e6}
{"gene knocked down": "7SLRNA:CR42652 + 7SLRNA:CR32864", "reagent no.": 1, "mean viability with MMS": 3.57e6, "viability with MMS, replicate 1": 4.06e6}
